Data on four compounds can be found in US6180844A, “Composition containing fluorescence-generating substrate” (Aisin Seiki Kabushiki Kaisha, priority 1998, dated 2001).

This data set has as its system human chromosome. Briefly: In-situ hybridization of a human chromosome: fluorescence-generating substrate reacted with probe-bonded peroxidase and hydrogen peroxide, observed by fluorescence microscope. The following applies: fluorescence microscope observation. From the text: A human chromosome sample was hybridized with a digoxigenin-labeled, full-length human DNA probe, to which was bonded a peroxidase-labeled anti-digoxigenin antibody. This was reacted with any of fluorescence-generating substrates of the invention (Compounds 1 to 11) or with a comparative substrate of a commercially available, water-soluble fluorescent substrate, 3-(4-hydroxyphenyl)propionic acid (HPPA). […] The full-length human DNA probe hybridizes entirely with the human chromosome. Therefore, if the fluorescence-generating substrates tested herein are reacted in a reaction system comprising peroxidase and hydrogen peroxide, the entire chromosome in the system shall be seen to emit fluorescence in the fluorescence-microscopic observation.
The procedure is as follows:
Human chromosome samples were prepared from cultured human peripheral blood lymphocytes. Full-length human DNA was labeled with digoxigenin through nick translation, collected through ethanol precipitation, and dissolved in formamide to prepare a digoxigenin-labeled, full-length human DNA probe. Each human chromosome sample was immersed in a denaturing solution kept heated at 70° C., for 2 minutes, and then rapidly cooled by putting it into 70% ethanol cooled to 4° C., whereby the double-stranded DNA of the sample was kept dissociated in a single-stranded condition. The probe was kept in a water bath at 75° C. for 10 minutes, and then rapidly cooled in ice water with 5 minutes, whereby the double-stranded DNA of the probe was kept dissociated in a single-stranded condition. This probe was mixed with a hybridization solution, put on the human chromosome sample, and reacted with it overnight at 37° C. (in-situ hybridization).
After having been hybridized, the system was washed with a solution of 50% formamide/2×SSC at 37° C. for 15 minutes, then with 2×SSC at room temperature for 15 minutes, and then with 4×SSC at room temperature for 5 minutes, thereby removing the excess, non-hybridized probe therefrom. […] Any of the fluorescence-generating substrates (Compounds 1 to 11) of the invention and a commercially-available, water-soluble fluorescent substrate, HPPA was dissolved in a reactant solution containing 0.01% hydrogen peroxide […], and the resulting fluorescent substrate solution was put on the sample and reacted with it at room temperature for 30 minutes. After reacting in the reaction system comprising the probe-bonded peroxidase and hydrogen peroxide, the fluorescence-generating substrate formed a new compound which was fixed on the chromosome and emitted fluorescence, which was observed using a fluorescence microscopic.
The full-length human DNA probe hybridizes with the entire chromosome, with the result that the entire chromosome was stained with the fluorescence-generating substrate. […]

SMILES strings stand for the structures.

`O=C(O)CCc1ccc(O)cc1` [HPPA, 3-(4-hydroxyphenyl)propionic acid, reference compound]: the “Color of Fluorescence” value was “green”.
With `Cc1cc(O)ccc1NC(=O)c1ccccc1C` [Compound 9] the entry was “green”.
Next, `O=C(O)CCCCCNC(=O)CCc1ccc(O)cc1` [Compound 11, 6-{3-(4-hydroxyphenyl)propionamido}hexanoic acid]: “green”; `Cc1cc(C)c(C(=O)Nc2ccc(O)cc2C)c(C)c1` [Compound 10, 4-hydroxy-2-methylphenyl-2,4,6-trimethylbenzamide]: “green”.
